# Data as given in publication PMC2700083, “A covalent peptide inhibitor of RGS4 identified in a focused one-bead, one compound library screen” (BMC Pharmacology, 2009).
# By UniProt entry, the sequences of proteins in these tests, tags left out. Where a name states a change or a piece, a line headed by the entry shows the natural chain unless it says otherwise. Residues count along the entry.
# UniProt P49799, residues 52-205: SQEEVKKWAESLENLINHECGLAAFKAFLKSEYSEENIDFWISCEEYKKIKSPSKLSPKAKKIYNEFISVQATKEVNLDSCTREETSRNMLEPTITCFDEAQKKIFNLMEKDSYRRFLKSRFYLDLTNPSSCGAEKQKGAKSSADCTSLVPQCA
# No constants are given. Whether binding was seen depends on the method and setting. Some results given as binding are weak or reduced against the parent protein; the word gives no strength.
# Target: RGS4Δ51N cleaved from the MBP-His6 construct (UniProt P49799)
# Assay: MALDI MS of the covalent adduct; 5 μM RGS4Δ51N pretreated with 250 μM 5nd (50:1) or DMSO, desalting column, MicroMX MALDI MS, positive ion mode; both purified
binder,measurement,value
"YWCKGLCK (C-terminal amide; disulfide bridge (S-S) between the two Cys; free N-terminus) [Peptide 5nd (Tyr-Trp-c[Cys-Lys-Gly-Leu-Cys]-Lys-NH2, S-S)]",binding,binds
